Like-named read-outs stand apart in the source and are kept apart here. At least one compound was matched to its structure with a doubt left. *1 amine or outer side, *2 acyl side, *3 side chain or, on linkers, in order; H or OH if unused. Where a SMILES comes first, the peptide text is derived from it. Bridges are numbered along the chain shown (N, C = ends). Roman numbers before positions name the chains, in order. [ ]: non-standard residue; d: D form. X1 = N=c1ccc2c(-c3ccc(C(=O)NCCOCCOCCN(CCOCCOCCOCCn4cc(CCC(=O)[*:1])nn4)CCOCCOCCOCCn4cc(CCC(=O)[*:2])nn4)cc3C(=O)O)c3ccc(N)c(S(=O)(=O)O)c3oc-2c1S(=O)(=O)O; TATA = O=C(CC[*:1])N1CN(C(=O)CC[*:2])CN(C(=O)CC[*:3])C1; tBuAla = CC(C)(C)C[C@H](N)C(=O)O; Nle = CCCC[C@H](N)C(=O)O
Target: T1, CD137 (Homo sapiens, UniProt Q07011)
T1 construct: Human peripheral blood mononuclear cells (PBMCs) were isolated from buffy coats from two donors; endogenous in cells
Experiment: BCY15416 direct binding to CD4 and CD8 positive T-cells (CD3 stimulated PBMCs, flow cytometry)
Conditions: read-out: Binding affinity kd,app, donor 217071
Description: To evaluate the affinity of a CD137 dimeric Bicycle® peptide conjugated to Alexa Fluor® 488, herein referred to as BCY15416, a binding assay utilizing CD3 stimulated primary peripheral blood mononuclear cells (PBMCs) was implemented.
On the day of the experiment, medium was prepared by supplementing RPMI-1640 (Gibco™ 11875-093; with L-glutamine) with 10% heat-inactivated fetal bovine serum (FBS; Corning® 35-011-CV), 10 mM HEPES (Gibco™ 15-630-080), and 1% Penicillin Streptomycin (Corning™ 30-002-CI), herein referred to as working medium. […]
Preparation of samples for flow cytometry: Zombie Violet™ Fixable Viability Dye (BioLegend® 423113) was prepared as a 1:1000 dilution in PBS and 100 μL of viability dye was added to each well and incubated in the dark at 4° C. for 30 minutes. […] Cells resuspended in 200 μL of stain buffer were kept at 4° C. and in the dark until read by BD FACSCelesta™ flow cytometer and FCS files were analyzed in FlowJo™.
Cells were gated on lymphocytes→singlets→live→CD4+ or CD8+→CD137+/− and the geometric mean of Alexa Fluor® 488 (conjugated to BCY15416) was calculated from the CD137+ and CD137− populations shown below. […] Calculated binding affinity (kd,app) for each donor appear in Table 5.

Amino acid sequences for entries named in this document (tags omitted). Residues count along the entry.
UniProt Q07011, 24-255: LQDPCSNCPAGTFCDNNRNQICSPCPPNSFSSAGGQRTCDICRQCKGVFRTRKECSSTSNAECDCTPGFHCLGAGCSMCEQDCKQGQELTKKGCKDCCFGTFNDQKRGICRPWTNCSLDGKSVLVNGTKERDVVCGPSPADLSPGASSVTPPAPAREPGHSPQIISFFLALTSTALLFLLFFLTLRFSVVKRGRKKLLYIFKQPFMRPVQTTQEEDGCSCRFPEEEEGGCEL

Compound `CCCC[C@@H]1NC(=O)[C@H](Cc2ccc(O)cc2)NC(=O)[C@@H]2CCCN2C(=O)[C@H](CC(=O)O)NC(=O)[C@H](C)NC(=O)[C@H](Cc2ccccc2)NC(=O)[C@@H]2CSCCC(=O)N3CN(CN(C3)C(=O)CCSC[C@@H](C(=O)N[C@@H](C)C(N)=O)NC1=O)C(=O)CCSC[C@H](NC(C)=O)C(=O)N[C@@H](CC(C)(C)C)C(=O)N1CCC[C@H]1C(=O)N[C@@H](CCC(=O)O)C(=O)N[C@H](CCCCNC(=O)CCc1cn(CCOCCOCCOCCN(CCOCCOCCNC(=O)c3ccc(-c4c5ccc(=N)c(S(=O)(=O)O)c-5oc5c(S(=O)(=O)O)c(N)ccc45)c(C(=O)O)c3)CCOCCOCCOCCn3cc(CCC(=O)NCCCC[C@H]4NC(=O)[C@H](CCC(=O)O)NC(=O)[C@@H]5CCCN5C(=O)[C@H](CC(C)(C)C)NC(=O)[C@@H](NC(C)=O)CSCCC(=O)N5CN6CN(C5)C(=O)CCSC[C@H](NC(=O)[C@H](Cc5ccc(O)cc5)NC(=O)[C@@H]5CCCN5C4=O)C(=O)N[C@@H](Cc4ccccc4)C(=O)N[C@@H](C)C(=O)N[C@@H](CC(=O)O)C(=O)N4CCC[C@H]4C(=O)N[C@@H](Cc4ccc(O)cc4)C(=O)N[C@@H](CCCC)C(=O)N[C@H](C(=O)N[C@@H](C)C(N)=O)CSCCC6=O)nn3)nn1)C(=O)N1CCC[C@H]1C(=O)N[C@@H](Cc1ccc(O)cc1)C(=O)N2` [BCY15416] (I: Ac-C[tBuAla]PE[dK]PYCFADPY[Nle]CA-NH2 / II: Ac-C[tBuAla]PE[dK]PYCFADPY[Nle]CA-NH2; linker I:1-I:8-I:15, II:1-II:8-II:15 via TATA; linker I:5-II:5 via X1; C-terminus assumed) has a Kd (CD4+ CD137+ population) of 0.13 nM and a Kd (CD8+ CD137+ population) of 0.13 nM.

Reference: patent publication US20220275053A1, “MODIFIED […] PEPTIDE LIGANDS” (BicycleTx Limited, priority 2019, published 2022)
